Assay results published in patent US20130345249A1, “Formulations for the prevention and treatment of Wolbachia-related disease” (priority 2011, published 2013).
At least one structure is not confirmed: it was looked up by name or label, or the drawing left a doubt.

Test system: Wolbachia
Assay: Microscopy-based high-throughput screen in Wolbachia-infected Drosophila tissue culture cells
Format: cell-based
Conditions: 4-week treatment
Protocol: In collaboration with the microscope company Molecular Devices, we optimized journaling software that analyzes the level of cytoplasmic DAPI (Wolbachia) fluorescence per cell in all wells of the plate. […] In this pilot, compounds were added to Wolbachia-infected cells at a final concentration of 100 uM in media and allowed to incubate for 3 days. Cells were then fixed, stained, imaged, and analyzed by automated machinery.

CN(C)[C@@H]1C(O)=C(C(N)=O)C(=O)[C@@]2(O)C(O)=C3C(=O)c4c(O)cccc4[C@@](C)(O)[C@H]3C[C@@H]12 [tetracycline]
Wolbachia infection of cell line after treatment: cured
